These are yes or no findings as the source states them, for the method shown. In cells and extracts the contact can be indirect. Some results given as binding are weak or reduced against the parent protein; the word gives no strength. Where a sequence is shown, tags or fusion partners need not be part of it.
Target: T1, His-tagged AHRR expressed in 293T cells (UniProt A9YTQ3)
T1 sequence: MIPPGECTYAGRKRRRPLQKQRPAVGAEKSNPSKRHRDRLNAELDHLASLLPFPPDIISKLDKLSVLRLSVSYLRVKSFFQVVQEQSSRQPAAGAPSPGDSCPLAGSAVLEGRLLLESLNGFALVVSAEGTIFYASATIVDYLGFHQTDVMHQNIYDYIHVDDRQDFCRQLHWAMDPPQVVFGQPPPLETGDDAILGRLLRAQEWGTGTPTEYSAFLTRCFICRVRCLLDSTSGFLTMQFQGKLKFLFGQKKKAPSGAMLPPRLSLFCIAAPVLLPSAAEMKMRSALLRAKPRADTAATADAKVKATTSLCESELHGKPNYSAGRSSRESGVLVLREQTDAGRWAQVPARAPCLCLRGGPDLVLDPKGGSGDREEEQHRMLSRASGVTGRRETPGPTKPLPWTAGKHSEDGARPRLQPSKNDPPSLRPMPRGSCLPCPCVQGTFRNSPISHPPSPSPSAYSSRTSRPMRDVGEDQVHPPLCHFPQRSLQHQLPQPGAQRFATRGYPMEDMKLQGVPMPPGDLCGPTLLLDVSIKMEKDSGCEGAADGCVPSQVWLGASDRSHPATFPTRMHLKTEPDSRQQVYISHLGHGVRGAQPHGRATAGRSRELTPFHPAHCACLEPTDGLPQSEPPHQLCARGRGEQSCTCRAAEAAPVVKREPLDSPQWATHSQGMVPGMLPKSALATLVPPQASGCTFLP
Test: co-IP; 293T cells transfected with LIMR and His-tagged AHRR, with or without LINC00305; precipitated with anti-His antibody or normal rabbit IgG, blotted with anti-His and anti-LIMR

B1: LIMR expressed in 293T cells (receptor, UniProt Q6UX01 1-489)
chain: MEAPDYEVLSVREQLFHERIRECIISTLLFATLYILCHIFLTRFKKPAEFTTVDDEDATVNKIALELCTFTLAIALGAVLLLPFSIISNEVLLSLPRNYYIQWLNGSLIHGLWNLVFLFSNLSLIFLMPFAYFFTESEGFAGSRKGVLGRVYETVVMLMLLTLLVLGMVWVASAIVDKNKANRESLYDFWEYYLPYLYSCISFLGVLLLLVCTPLGLARMFSVTGKLLVKPRLLEDLEEQLYCSAFEEAALTRRICNPTSCWLPLDMELLHRQVLALQTQRVLLEKRRKASAWQRNLGYPLAMLCLLVLTGLSVLIVAIHILELLIDEAAMPRGMQGTSLGQVSFSKLGSFGAVIQVVLIFYLMVSSVVGFYSSPLFRSLRPRWHDTAMTQIIGNCVCLLVLSSALPVFSRTLGLTRFDLLGDFGRFNWLGNFYIVFLYNAAFAGLTTLCLVKTFTAAVRAELIRAFGLDRLPLPVSGFPQASRKTQHQ
Question: For B1, which binding is on record?
Answer: binds

From paper PMC5385552
